{
  "source": "patent US4480118A",
  "about": "“Carboxylic acid ester and an insecticidal and/or acaricidal composition containing the same” (priority 1981, dated 1984)",
  "system": "carmine mite",
  "assay": "Controlling effect on carmine mite",
  "format": "in vivo",
  "settings": "500 ppm emulsion (chlorodimeform: 1,000-fold dilution of 50% emulsifiable concentrate), counted after 10 days",
  "note": "At least one read-out could not be matched to a standard name with certainty. Some compounds share one range, which may span the group rather than tell each member.",
  "data": [
    {"smiles": "Cc1cc(Cl)ccc1N=CN(C)C", "note": "[Chlorodimeform, N'--(2methyl-4-chlorophenyl)-N,N--dimethylformamidine, reference compound]", "values": [
      {"measurement": "Efficacy (number of adult female mites per leaf)", "result": "++ (0-9)"}
    ]}
  ]
}
